Laboratory results published in PubChem BioAssay AID1347076 (National Center for Advancing Translational Sciences (NCATS), 2019).
The whole screen tested about 400,000 compounds, of which about 13,000 (3.2%) were called active. This list was built around the results that the source calls inconclusive (neither active nor inactive); the mix of calls is not that of the screen. Calls come from the whole dose curve; as a rule, active = well fitted cell-killing curve with a large enough effect; inconclusive = small, poorly fitted or top-dose-only effect, or effect the other way; inactive = flat fitted curve, though single readings scatter. Where the call is inconclusive, the potency comes from a doubtful curve fit.
Potency is the fitted concentration of half-maximal effect.

Experiment: qHTS assay for MDR1-selective chemotherapeutics: Primary screen using the drug-selected MDR subline cells KB-V1; note: nearly all actives have a fitted effect of over 60% in size
Details: KB-V1 MDR cells viability, CellTiter-Glo, 72 h; series mostly up to 46.1 µM
Outline: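 Drug-selected KB-V1 cells, grown in DMEM lacking phenol red with 10% FBS, receive compound titrations; after three days at 37 degrees C, surviving cell ATP is quantified by CellTiter-Glo luminescence and responses normalized and curve-fitted.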
In the case of `Cc1ccc(C)c(Cn2c(O)c(N=NC(=S)Nc3ccccc3F)c3ccccc32)c1`, the Potency is reported as inconclusive: 3.66 µM [cytotoxic, full curve]. For `O=C(COC(=O)CN1C(=O)c2ccccc2C1=O)NC1CCCCC1`, the Potency was inconclusive: 29.1 µM [rising, single point]. For `COc1ccc(OC)c(NC(=O)c2cccc3c2C(=O)N(C2CCCCC2)C3)c1`, the Potency was “inactive”. For `O=C(NCc1ccccc1Cl)c1cccc(NC2=NC3CS(=O)(=O)CC3S2)c1` (centres undefined), the Potency was inconclusive: 20.6 µM [rising, partial curve, poor fit]. For `O=[N+]([O-])c1cc(S(=O)(=O)N2CCOCC2)ccc1NS(=O)(=O)c1ccccc1`, the Potency was inconclusive: 16.4 µM [rising, single point]. In the case of `Cc1sc2ncn(CC(=O)NCCc3ccccc3)c(=O)c2c1C`, the Potency is reported as inconclusive: 0.461 µM [rising, full curve, poor fit]. For `COc1cc(NC(=O)c2cc(-c3ccc(F)cc3OC(C)C)n[nH]2)cc(OC)c1OC`, the Potency was inconclusive: 14.6 µM [cytotoxic, partial curve]. For `CCOC(=O)C1CCCN(CC(=O)Nc2nc(-c3ccccc3)cs2)C1` (centres undefined), the Potency was inconclusive: 10.3 µM [cytotoxic, partial curve]. For `O=S(=O)(c1ccc(F)cc1)N(CC(O)Cn1c2ccccc2c2ccccc21)c1ccccc1` (centres undefined), the Potency was “inactive”. With `COc1cc(OC)c(C=Cc2ccncn2)c(OC)c1` the Potency was “inactive”. With `CN(C)C1CN(Cc2cn(Cc3cccc(Cl)c3)nn2)S(=O)(=O)C1` (centres undefined) the Potency was inconclusive: 3.26 µM [rising, partial curve]. With `COc1cc(OC)c(N(C)C(=O)c2c(C)oc3ncnc(N4CCCCC4)c23)cc1Cl` the Potency was “inactive”. With `O=c1c2ccccc2cnn1Cc1n[nH]c(=S)n1C1CC2CCC1C2` (centres undefined) the Potency was “inactive”. In the case of `CC(C)(C)c1cc(NC(=O)c2cccs2)no1`, the Potency is reported as “inactive”. With `COc1ccc(S(=O)(=O)Nc2ccccc2Cl)cc1NC(C)=O` the Potency was “inactive”. For `O=C1CCCN1CCCNC(=S)Nc1ccc(Cl)cc1Cl`, the Potency was “inactive”. In the case of `CCOc1ccc(Cc2onc3c2C(=O)CCC3)cc1OCC`, the Potency is reported as inconclusive: 23.1 µM [cytotoxic, single point]. With `CN(C)CCCn1c(SCC(=O)N2CC(=O)Nc3ccccc32)nc2ccccc2c1=O` the Potency was inconclusive: 29.1 µM [cytotoxic, single point]. For `Cc1ccc(-n2nc3c(n2)/C(=N/O)CC/C3=N\O)cc1`, the Potency was inconclusive: 29.1 µM [cytotoxic, single point]. With `CN(C)S(=O)(=O)c1ccc(C(=O)OCC2COC(C)(C)O2)cc1` (centres undefined) the Potency was inconclusive: 25.9 µM [rising, single point]. In the case of `Cc1ccc2c(=O)cc(C(=O)NCc3ccccc3)oc2c1`, the Potency is reported as inconclusive: 20.6 µM [cytotoxic, single point]. For `Cn1ccnc1C(=O)c1ccc(NN)c([N+](=O)[O-])c1`, the Potency was “inactive”. In the case of `Cc1c(C(=O)Nc2cc(F)ccc2F)sc2nc3n(c(=O)c12)CCCCC3`, the Potency is reported as inconclusive: 29.1 µM [rising, single point]. For `CC(/C=N/NC(=O)c1ccncc1)=C\c1ccccc1`, the Potency was “inactive”. With `CCn1cc(/C=C(\NC(=O)c2ccc(C)cc2)C(=O)NCCCn2ccnc2)c2ccccc21` the Potency was inconclusive: 29.1 µM [rising, single point]. With `NC(Cc1ccc(Cl)cc1)c1csc(Nc2cc(Oc3ccccc3)ncn2)n1` (centres undefined) the Potency was inconclusive: 29.1 µM [cytotoxic, single point]. With `CN(C)/C=C/c1[nH]c(=O)[nH]c(=O)c1[N+](=O)[O-]` the Potency was inconclusive: 4.11 µM [rising, full curve, poor fit]. In the case of `COc1ccccc1-c1cccc([C@@H]2C[C@H]3[C@H](CON3C)CN2S(=O)(=O)c2ccccc2C)c1`, the Potency is reported as “inactive”. For `Clc1ccc(N2O[C@H]3C=C[C@@H]2C3)nc1`, the Potency was “inactive”. In the case of `CCc1cccc2c(C(=O)COC(=O)c3nccnc3N)c[nH]c12`, the Potency is reported as inconclusive: 29.1 µM [cytotoxic, single point]. With `CCOC(=O)Cn1nc(/C=C/c2ccccc2)ccc1=O` the Potency was inconclusive: 29.1 µM [rising, single point]. With `CCCCNC(=O)CSc1nc2nc(C)c(Cc3c(F)cccc3Cl)c(C)n2n1` the Potency was inconclusive: 5.8 µM [cytotoxic, partial curve, poor fit]. With `COc1ccc(C)cc1S(=O)(=O)N(CC(=O)O)c1ccc(F)cc1` the Potency was inconclusive: 13 µM [cytotoxic, partial curve, poor fit]. With `O=C(Nc1cccc(Cl)c1N1CCCC1)c1cccc(-c2cc3ccccc3oc2=O)c1` the Potency was inconclusive: 25.9 µM [cytotoxic, partial curve, poor fit]. In the case of `CCc1ccc(-n2c(=O)c3sc4ccccc4c3n(CC(=O)N(CC)Cc3ccccc3)c2=O)cc1`, the Potency is reported as “inactive”. With `Cc1ccc(C)c(S(=O)(=O)NCCOc2nc(NC(C)C)nc(NC(C)C)n2)c1` the Potency was inconclusive: 8.2 µM [cytotoxic, partial curve]. For `Cc1ccc(C)c(OCC(=O)Nc2ccc(S(=O)(=O)Nc3onc(C)c3C)cc2)c1`, the Potency was “inactive”. With `COc1ccc(OC)c(NC(=O)C2(C)CCN2Cc2cccc(OC)c2F)c1` (centres undefined) the Potency was “inactive”. In the case of `O=C(C1CCC(Cn2c(=O)c3sccc3n(Cc3ccccc3)c2=O)CC1)N1CCOCC1` (centres undefined), the Potency is reported as “inactive”. For `CCOc1ccc(-c2cnc(NCc3cccc4ccccc34)n2CCOC)cc1`, the Potency was inconclusive: 14.6 µM [cytotoxic, partial curve, poor fit]. For `Cn1c(=O)n(Cc2ccc(Cl)cc2)c(=O)c2c1nc1n2CCN1Cc1ccco1`, the Potency was active: 11.6 µM. With `Cc1cc(C)n(-c2cc(N3CCOCC3)nc(-c3ccccc3)n2)n1` the Potency was inconclusive: 8.2 µM [cytotoxic, partial curve, poor fit]. In the case of `C/C(=N\NC(=O)Cc1c[nH]c2ccccc12)c1ccc2ccccc2c1`, the Potency is reported as inconclusive: 29.1 µM [cytotoxic, single point]. For `CCOc1ccc(N(CC(=O)NCC2CCCO2)C(=O)CCC(=O)Nc2ccccn2)cc1` (centres undefined), the Potency was “inactive”. In the case of `COC(=O)/C(=N/Nc1ccccc1C)Sc1nnc(C(O)c2ccccc2)n1-c1ccccc1` (centres undefined), the Potency is reported as “inactive”. In the case of `COc1ccc(C(=O)Nc2ncccc2C)cc1S(=O)(=O)N1CCCc2ccccc21`, the Potency is reported as inconclusive: 23.1 µM [cytotoxic, single point]. With `COc1ccccc1NC(=O)c1ccc(COc2ccc3c(c2)CCC3)cc1` the Potency was inconclusive: 13 µM [cytotoxic, partial curve, poor fit]. In the case of `Cn1nc(C(=O)OCC(=O)N(Cc2ccccc2)C(C)(C)C)c2ccccc2c1=O`, the Potency is reported as inconclusive: 11.6 µM [cytotoxic, partial curve]. For `Cc1noc(C)c1C(=O)NC(C)c1ccc2c(c1)OCO2` (centres undefined), the Potency was inconclusive: 2.31 µM [rising, partial curve, poor fit]. For `Cc1ccc(/C(N)=N/OC(=O)COc2ccccc2Cl)cc1`, the Potency was “inactive”. With `CCOC(=O)c1cccc(NC(=O)CSc2nncn2-c2ccccn2)c1` the Potency was inconclusive: 13 µM [cytotoxic, partial curve]. For `O=C(Nc1ccccc1F)c1ccc(Cn2nc(N3CCN(c4ccccc4)CC3)ccc2=O)o1`, the Potency was inconclusive: 29.1 µM [cytotoxic, single point]. For `Cc1cc(Cl)c2c(c1)[C@]1(C(=O)N2)[C@@H]2C(=O)N(Cc3ccccc3)C(=O)[C@@H]2[C@@H]2CCCN21`, the Potency was inconclusive: 23.1 µM [cytotoxic, partial curve, poor fit]. For `O=S1(=O)c2ccc(Br)cc2N2CC[C@H](C2)N1Cc1ccc(Cl)cc1`, the Potency was inconclusive: 0.092 µM [cytotoxic, full curve]. For `O=[N+]([O-])c1ccc(/C=N/Nc2nc(N3CCCC3)nc(N3CCCC3)n2)o1`, the Potency was active: 20.6 µM. In the case of `Cc1ccc(NC(=O)/C(Cl)=C/c2ccccc2)cc1C`, the Potency is reported as inconclusive: 23.1 µM [cytotoxic, partial curve]. In the case of `O=C(C[C@@H]1C[C@@H]2c3cc(NS(=O)(=O)c4ccc(F)cc4)ccc3O[C@@H]2[C@H](CO)O1)NCc1ccc(Oc2ccccc2)cc1`, the Potency is reported as “inactive”. In the case of `COc1ccccc1C(=O)NCCC(=O)NC(C)c1ccc(-n2ccnc2)cc1` (centres undefined), the Potency is reported as inconclusive: 23.1 µM [cytotoxic, single point]. With `O=C(CCC(=O)N1CC2CCCN2c2ccccc21)NCc1ccc(F)cc1` (centres undefined) the Potency was “inactive”. With `CCOC(=O)c1cc2c(ccc3nc(C)c(C)c32)[nH]c1C` the Potency was “inactive”. With `O=C(NCc1ccco1)c1cc2nc(-c3cccs3)cc(C(F)(F)F)n2n1` the Potency was inconclusive: 1.84 µM [cytotoxic, full curve]. With `CCc1cc(C(=O)Nc2c(C)nn(Cc3ccccc3Cl)c2C)no1` the Potency was “inactive”. For `O=C(CNC(=S)NC(=O)c1ccco1)c1ccccc1`, the Potency was “inactive”. In the case of `CCn1c(SCC(=O)Nc2cccc(C)n2)nc2c1c(=O)n(C)c(=O)n2C`, the Potency is reported as inconclusive: 8.2 µM [cytotoxic, partial curve]. For `CCOC(=O)C1=C(CN2CCOCC2)NC(=O)NC1c1cc(C)ccc1C` (centres undefined), the Potency was inconclusive: 18.4 µM [cytotoxic, single point]. With `CC(=O)O[C@]1(C(C)=O)CC[C@H]2[C@@H]3C=C(C)C4=CC(=O)CC[C@]4(C)[C@H]3CC[C@@]21C` the Potency was inconclusive: 20.6 µM [cytotoxic, partial curve]. For `COCCCn1c(=S)[nH]c2c(sc3ccccc32)c1=O`, the Potency was inconclusive: 29.1 µM [cytotoxic, single point]. In the case of `Fc1ccc(COc2cccc(CNCc3ccncc3)c2)cc1`, the Potency is reported as inconclusive: 8.2 µM [cytotoxic, partial curve]. For `CCOc1ccc(S(=O)(=O)NCCC(=O)N2CC=C(c3ccccc3)CC2)cc1`, the Potency was inconclusive: 29.1 µM [cytotoxic, single point].
